Measurements: patent publication US12673070B2, “Treatment of sepsis and hypercytokinemia” (TX MEDIC AB, priority 2020, dated 2026)
At least one compound was matched to its structure with a doubt left.

Tested on: human purified monocytes
Experiment: Stimulated IL-6 release from human purified monocytes (ELISA), Example 2
Type: cell-based
Conditions: 24 hours, LMW-DS 60-600 μg/ml, heparin 2.0-20 μg/ml, dexamethasone 3.0 μM, n=10 donors
Procedure: Peripheral blood mononuclear cells (PBMC) were isolated from healthy donors through Ficoll-Paque PLUS (GE Healthcare; 11778538) density centrifugation. Monocytes were purified using the EasySep™ human monocyte enrichment kit (StemCell) that purifies monocytes ‘untouched’ to maintain their phenotype.
Monocytes were cultured in the absence (unstimulated PBS vehicle controls) or presence of stimulation (LPS or peptidoglycan) in the absence (vehicle) or presence of LMW-DS (ILB®, Tikomed AB, Viken, Sweden, WO 2016/076780; three concentrations: 600 μg/ml, 200 μg/ml and 60 μg/ml), heparin (2.0, 6.0 or 20 μg/ml; equivalent to 0.406, 1.218 and 4.06 units/ml; Sigma Aldrich) or dexamethasone (3.0 μM; Sigma Aldrich) for 24 hours at 37° C., 5% CO2. Following centrifugation, cell culture supernatants were removed and stored at −20° C. awaiting analysis for IL-6 by ELISA. Levels of IL-6 were quantified in the supernatant by ELISA (R&D systems) according to manufacturer's instructions.

C[C@@H]1C[C@H]2[C@@H]3CCC4=CC(=O)C=C[C@]4(C)[C@@]3(F)[C@@H](O)C[C@]2(C)[C@@]1(O)C(=O)CO [dexamethasone]
LPS-stimulated IL-6 release into the cell culture supernatant (LPS (0.01 ng/ml)): inhibited the LPS-stimulated IL-6 release into the cell culture supernatant in a statistically significant manner | peptidoglycan-stimulated IL-6 release into the cell culture supernatant (peptidoglycan (30 ng/ml)): statistically significant inhibition
